pKd: −log10 of the molar value. The exact form of at least one protein or probe is not confirmed. Tags and fusion partners may be left off the protein sequences shown.
Biological target: T1, TTHB099 (Thermus thermophilus HB8) (UniProt Q53W63)
T1 sequence (looked up, limits assumed): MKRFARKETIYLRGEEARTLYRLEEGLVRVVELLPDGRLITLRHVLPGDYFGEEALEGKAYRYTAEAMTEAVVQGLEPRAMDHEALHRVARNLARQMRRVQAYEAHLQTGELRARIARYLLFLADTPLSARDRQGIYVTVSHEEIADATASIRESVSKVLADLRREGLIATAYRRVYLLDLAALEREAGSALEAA
Experiment: BLI
Conditions: pH and temperature not given (as previously described), BLI 17, 50, 150, 450 nM TTHB099 on streptavidin sensors, recombinant protein, label: 5' biotin (Bio_ST2R strand)

AGGAATTCGTGCAGAGGTGAATTGTATTCTAGAATACATTACCATCCCTCCAGAAGCTTG (double strand) [ST2_099 consensus (wt), BLI probe]
pKd (100 nM 3',5'-cAMP, 200 nM TTHB099): 8.65 | pKd (no cAMP): 8.65

Source: article PMC7662524, “Determination and Dissection of DNA-Binding Specificity for the Thermus thermophilus HB8 Transcriptional Regulator TTHB099”
